PubChem BioAssay AID1508588 | Peter MacCallum Cancer Centre – 2020
Shown is a random part of about 18,000 reagents. Of all reagents, 790 (4.4%) got an active call. 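Calls rest on a combination of fold-change classes in drug and vehicle arms, not all shown here.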 Unmarked entries are inactive.

Screen: 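Genome-wide search for knock-downs that heighten vemurafenib action in melanoma cells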 (primary screen)
Cells: human WM266.4 melanoma cells (BRAF V600 mutant)
Reagent: siRNA pool against human genes, 40 nM
Duration: 96 h from transfection to read-out
Challenge: vemurafenib 300 nM (about IC25), added 48 h after transfection, for 48 h; comparison arm got DMSO vehicle only
Measurement: 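Ratios to non-targeting siRNA for cell gain, counted as DAPI nuclei after minus before drug and averaged over two replicates, and for absorbance-read medium lactate per cell; both binned into fold-change classes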
Direction: cell gain with vemurafenib: higher = more cell gain than with non-targeting siRNA; lactate per cell with vemurafenib: higher = more lactate made per cell
Active means: 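a knock-down counts as enhancing when its fold-change classes with vehicle and with vemurafenib, taken together, show a stronger drug effect on cell gain or lactate per cell; exact class pairs not stated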
Calls: active = enhances vemurafenib effect; inactive = no enhancement seen

After knock-down of SNURF (SNRPN upstream open reading frame), the screen gave cell gain with vemurafenib 1.05; lactate per cell with vemurafenib 0.9.
COL6A3 (collagen type VI alpha 3 chain) scored cell gain with vemurafenib 0.07; lactate per cell with vemurafenib 2.31.
After knock-down of TAS2R40 (taste 2 receptor member 40), the screen gave cell gain with vemurafenib 0.69; lactate per cell with vemurafenib 0.52.
With knock-down of KCNK10 (potassium two pore domain channel subfamily K member 10), the screen gave cell gain with vemurafenib 0.41; lactate per cell with vemurafenib 0.76.
Against ARRDC4 (arrestin domain containing 4), the values are cell gain with vemurafenib 0.9; lactate per cell with vemurafenib 0.72.
ARSI (arylsulfatase family member I) scored cell gain with vemurafenib 0.59; lactate per cell with vemurafenib 0.75.
Silencing of XRCC1 (X-ray repair cross complementing 1) resulted in: cell gain with vemurafenib 0.73; lactate per cell with vemurafenib 0.41.
PLSCR5 (phospholipid scramblase family member 5) gave cell gain with vemurafenib 1.15; lactate per cell with vemurafenib 0.63.
Against ACTR1A (actin related protein 1A), the entry reads cell gain with vemurafenib 0.68; lactate per cell with vemurafenib 1.28.
With knock-down of SIGLEC8 (sialic acid binding Ig like lectin 8), the record shows cell gain with vemurafenib 0.3; lactate per cell with vemurafenib 1.11.
After knock-down of TPCN2 (two pore segment channel 2), the record shows cell gain with vemurafenib 1.18; lactate per cell with vemurafenib 1.08.
PRMT1 (protein arginine methyltransferase 1) scored cell gain with vemurafenib 0.49; lactate per cell with vemurafenib 0.82.
Depletion of DTL (denticleless E3 ubiquitin protein ligase adapter) came out at: cell gain with vemurafenib 0.33; lactate per cell with vemurafenib 1.41.
Knock-down of CELA3B (chymotrypsin like elastase 3B) gave: cell gain with vemurafenib 0.72; lactate per cell with vemurafenib 0.72.
C9orf153 (chromosome 9 open reading frame 153) scored cell gain with vemurafenib 1.01; lactate per cell with vemurafenib 1.02.
After knock-down of PSG2 (pregnancy specific beta-1-glycoprotein 2), the screen gave cell gain with vemurafenib 0.43; lactate per cell with vemurafenib 0.82.

A run of entries taken from the entries so far, for reference:
ACTR1A (actin related protein 1A): cell gain with vemurafenib = 0.68; lactate per cell with vemurafenib = 1.28
SIGLEC8 (sialic acid binding Ig like lectin 8): cell gain with vemurafenib = 0.3; lactate per cell with vemurafenib = 1.11
